These are yes or no findings as the source states them, for the method shown. Some binding calls cover weakened binding; strength is not graded here.
T1: human IL-11Rα (human, UniProt Q14626 23-363, limits assumed)
T1 construct: Protein coated on ELISA plates and used in solution for BLI; also called hIL-11Rα; hIL-11R
T1 sequence: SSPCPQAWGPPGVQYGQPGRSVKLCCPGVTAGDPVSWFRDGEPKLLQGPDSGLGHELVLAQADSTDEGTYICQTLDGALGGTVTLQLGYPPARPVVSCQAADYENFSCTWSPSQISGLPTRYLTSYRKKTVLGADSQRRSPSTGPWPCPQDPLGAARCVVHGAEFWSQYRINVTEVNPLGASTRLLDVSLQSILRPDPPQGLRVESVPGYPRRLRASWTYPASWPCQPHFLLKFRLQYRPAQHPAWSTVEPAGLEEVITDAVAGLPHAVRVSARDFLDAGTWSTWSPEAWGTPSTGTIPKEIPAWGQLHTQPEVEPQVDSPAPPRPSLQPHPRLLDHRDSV


Legend:
human IL-11Rα [1] = target: T1, human IL-11Rα; assay: BLI (Octet RED96e), mAb on protein G biosensors, hIL-11Rα in solution
Procedure: Association was carried out in the presence of a 2-fold dilution series of hIL-11Rα and was allowed to proceed for 120 seconds; dissociation was measured for 300 to 1200 seconds.

human IL-11Rα [2] = target: T1, human IL-11Rα; assay: ELISA (format not described)
human IL-11Rα [3] = target: T1, human IL-11Rα; assay: BLI (Octet RED96e), AHC biosensors, qualitative assessment against mAb5

Row | Binder | binding (human IL-11Rα [1]) | binding (human IL-11Rα [2]) | binding (human IL-11Rα [3])
1 | mAb14 (antibody, V domains shown, Expressed as human IgG4 (S228P EU)) VH: EVQLLESGGGLVQPGGSLRLSCAASGFTFSWYSMTWVRQAPGKGLEWVSSIVPYGDLTQYAESVKGRFTISRDNSKNTLYLQMNSLRAEDTAVYYCAKGPGWGSFDLWGRGTLVTVSS VL: DIQMTQSPSSLSASVGDRVTITCQASQDINNYLNWYQQKPGKAPKLLIYDASNLQTGVPSRFSGSGSGTDFTFTISSLQPEDIATYYCQQHESQSPTFGPGTKVDIK | binds | – | –
2 | mAb15 (antibody, V domains shown, Expressed as human IgG4 (S228P EU)) VH: EVQLLESGGGLVQPGGSLRLSCAASGFTFSWYSMTWVRQAPGKGLEWVSSIVPYGDLTQYADSVKGRFTISRDNSKNTLYLQMNSLRAEDTAVYYCAKGPGWGSFDLWGRGTLVTVSS VL: DIQMTQSPSSLSASVGDRVTITCQASQDINNYLNWYQQKPGKAPKLLIYDASNLQTGVPSRFSGSGSGTDFTFTISSLQPEDIATYYCQQHETQTPTFGPGTKVDIK | binds | – | –
3 | mAb21 (antibody, human IgG4, V domains shown, Expressed as human IgG4 (S228P EU)) VH: EVQLLESGGGLVQPGGSLRLSCAASGFTFSHYSMTWVRQAPGKGLEWVSSIVPYGDLTQYADSVKGRFTISRDNSKNTLYLQMNSLRAEDTAVYYCAKGPGWGSFDLWGRGTLVTVSS VL: DIQMTQSPSSLSASVGDRVTITCQASQDINNYLNWYQQKPGKAPKLLIYDASNLQTGVPSRFSGSGSGTDFTFTISSLQPEDIATYYCQQHESQSPTFGPGTKVDIK | – | binds | binds
4 | mAb23 (antibody, human IgG4, V domains shown, Expressed as human IgG4 (S228P EU)) VH: EVQLLESGGGLVQPGGSLRLSCAASGFTFSKYSMTWVRQAPGKGLEWVSSIVPYGDLTQYADSVKGRFTISRDNSKNTLYLQMNSLRAEDTAVYYCAKGPGWGSFDLWGRGTLVTVSS VL: DIQMTQSPSSLSASVGDRVTITCQASQDINNYLNWYQQKPGKAPKLLIYDASNLQTGVPSRFSGSGSGTDFTFTISSLQPEDIATYYCQQHESQSPTFGPGTKVDIK | – | binds | binds
5 | mAb29 (antibody, human IgG4, V domains shown, Expressed as human IgG4 (S228P EU)) VH: EVQLLESGGGLVQPGGSLRLSCAASGFTFSSYSMTWVRQAPGKGLEWVSSIVPYGDLTQYADSVKGRFTISRDNSKNTLYLQMNSLRAEDTAVYYCAKGPGWGSFDLWGRGTLVTVSS VL: DIQMTQSPSSLSASVGDRVTITCQASQDINNYLNWYQQKPGKAPKLLIYDASNLQTGVPSRFSGSGSGTDFTFTISSLQPEDIATYYCQQHESQSPTFGPGTKVDIK | – | binds | binds
6 | mAb31 (antibody, human IgG4, V domains shown, Expressed as human IgG4 (S228P EU)) VH: EVQLLESGGGLVQPGGSLRLSCAASGFTFSVYSMTWVRQAPGKGLEWVSSIVPYGDLTQYADSVKGRFTISRDNSKNTLYLQMNSLRAEDTAVYYCAKGPGWGSFDLWGRGTLVTVSS VL: DIQMTQSPSSLSASVGDRVTITCQASQDINNYLNWYQQKPGKAPKLLIYDASNLQTGVPSRFSGSGSGTDFTFTISSLQPEDIATYYCQQHESQSPTFGPGTKVDIK | – | binds | binds

Reference: patent publication US20240425606A1, “ANTI-IL-11RA ANTIBODIES” (Lassen Therapeutics 1, Inc., priority 2021, published 2024)
